Measurements reported in the supplement of paper PMC8728848.
The other results are listed elsewhere or left out.

What was measured:
Test in all cases: glycan array binding signal (z-score within array); higher = stronger binding
Conditions in all cases: glycan notation: IUPAC condensed, linker removed
Neu5Ac(a2-3)Gal = biological target: Neu5Ac(a2-3)Gal
In short: (§1)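 The binding signal is a Z-score computed within each array. Data were drawn from 3228 arrays in the Consortium for Functional Glycomics database, restricted to those with a known protein sequence. Scores were averaged over arrays of the same protein sequence at different concentrations or buffers, and over linkers, and negative values can be taken as non-binding.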

[1] = biological target: Neu5Ac(a2-3)Gal(b1-3)GalNAc
In short: as §1

[2] = biological target: Neu5Ac(a2-3)Gal(b1-3)GalNAc(b1-3)Gal(a1-4)Gal(b1-4)Glc
In short: as §1

[3] = biological target: Neu5Ac(a2-3)Gal(b1-3)GalNAc(b1-4)Gal(b1-4)Glc
In short: as §1

[4] = biological target: Neu5Ac(a2-3)Gal(b1-3)GalNAc(b1-4)[Neu5Ac(a2-3)]Gal(b1-4)Glc
In short: as §1

[5] = biological target: Neu5Ac(a2-3)Gal(b1-3)GalNAc(b1-4)[Neu5Ac(a2-8)Neu5Ac(a2-3)]Gal(b1-4)Glc
In short: as §1

[6] = biological target: Neu5Ac(a2-3)Gal(b1-3)GalNAc6S
In short: as §1

[7] = biological target: Neu5Ac(a2-3)Gal(b1-3)GlcNAc
In short: as §1

[8] = biological target: Neu5Ac(a2-3)Gal(b1-3)GlcNAc(b1-2)Man
In short: as §1

[9] = biological target: Neu5Ac(a2-3)Gal(b1-3)GlcNAc(b1-2)Man(a1-3)[GlcNAc(b1-4)][Neu5Ac(a2-3)Gal(b1-3)GlcNAc(b1-2)Man(a1-6)]Man(b1-4)GlcNAc(b1-4)GlcNAc
In short: as §1

[10] = biological target: Neu5Ac(a2-3)Gal(b1-3)GlcNAc(b1-2)Man(a1-3)[Neu5Ac(a2-3)Gal(b1-3)GlcNAc(b1-2)Man(a1-6)]Man(b1-4)GlcNAc(b1-4)GlcNAc
In short: as §1

[11] = biological target: Neu5Ac(a2-3)Gal(b1-3)GlcNAc(b1-2)[Neu5Ac(a2-3)Gal(b1-3)GlcNAc(b1-4)]Man(a1-6)[Neu5Ac(a2-3)Gal(b1-3)GlcNAc(b1-2)Man(a1-3)]Man(b1-4)GlcNAc(b1-4)GlcNAc
In short: as §1

[12] = biological target: Neu5Ac(a2-3)Gal(b1-3)GlcNAc(b1-3)Gal(b1-3)GlcNAc
In short: as §1

[13] = biological target: Neu5Ac(a2-3)Gal(b1-3)GlcNAc(b1-3)Gal(b1-4)GlcNAc
In short: as §1

[14] = biological target: Neu5Ac(a2-3)Gal(b1-3)GlcNAc(b1-3)GalNAc
In short: as §1

[15] = biological target: Neu5Ac(a2-3)Gal(b1-3)GlcNAc(b1-6)GalNAc
In short: as §1

[16] = biological target: Neu5Ac(a2-3)Gal(b1-3)GlcNAc6S
In short: as §1

[17] = biological target: Neu5Ac(a2-3)Gal(b1-3)[Fuc(a1-4)]GlcNAc
In short: as §1

[18] = biological target: Neu5Ac(a2-3)Gal(b1-3)[Fuc(a1-4)]GlcNAc(b1-3)Gal(b1-3)[Fuc(a1-4)]GlcNAc
In short: as §1

[19] = biological target: Neu5Ac(a2-3)Gal(b1-3)[Fuc(a1-4)]GlcNAc(b1-3)Gal(b1-4)[Fuc(a1-3)]GlcNAc
In short: as §1

[20] = biological target: Neu5Ac(a2-3)Gal(b1-3)[GlcNAc(b1-6)]GalNAc
In short: as §1

[21] = biological target: Neu5Ac(a2-3)Gal(b1-3)[Neu5Ac(a2-6)]GalNAc
In short: as §1

[22] = biological target: Neu5Ac(a2-3)Gal(b1-3)[Neu5Ac(a2-6)]GlcNAc(b1-3)[Fuc(a1-3)[Gal(b1-4)]GlcNAc(b1-6)]Gal(b1-4)Glc
In short: as §1

[23] = biological target: Neu5Ac(a2-3)Gal(b1-3)]Neu5Ac(a2-3)Gal(b1-4)]GlcNAc
In short: as §1

Neu5Ac(a2-3)Gal(b1-4)Glc = biological target: Neu5Ac(a2-3)Gal(b1-4)Glc
In short: as §1

[24] = biological target: Neu5Ac(a2-3)Gal(b1-4)GlcNAc
In short: as §1

[25] = biological target: Neu5Ac(a2-3)Gal(b1-4)GlcNAc(b1-2)Man
In short: as §1

[26] = biological target: Neu5Ac(a2-3)Gal(b1-4)GlcNAc(b1-2)Man(a1-3)[GlcNAc(b1-4)][Neu5Ac(a2-3)Gal(b1-4)GlcNAc(b1-2)Man(a1-6)]Man(b1-4)GlcNAc(b1-4)GlcNAc
In short: as §1

[27] = biological target: Neu5Ac(a2-3)Gal(b1-4)GlcNAc(b1-2)Man(a1-3)[Neu5Ac(a2-3)Gal(b1-4)GlcNAc(b1-2)Man(a1-6)]Man(b1-4)GlcNAc(b1-4)GlcNAc
In short: as §1

[28] = biological target: Neu5Ac(a2-3)Gal(b1-4)GlcNAc(b1-2)Man(a1-3)[Neu5Ac(a2-3)Gal(b1-4)GlcNAc(b1-2)Man(a1-6)]Man(b1-4)GlcNAc(b1-4)[Fuc(a1-6)]GlcNAc
In short: as §1

[29] = biological target: Neu5Ac(a2-3)Gal(b1-4)GlcNAc(b1-2)Man(a1-3)[Neu5Ac(a2-6)Gal(b1-4)GlcNAc(b1-2)Man(a1-6)]Man(b1-4)GlcNAc(b1-4)GlcNAc
In short: as §1

[30] = biological target: Neu5Ac(a2-3)Gal(b1-4)GlcNAc(b1-2)[Neu5Ac(a2-3)Gal(b1-4)GlcNAc(b1-4)]Man(a1-3)[GlcNAc(b1-4)][Neu5Ac(a2-3)Gal(b1-4)GlcNAc(b1-2)[Neu5Ac(a2-3)Gal(b1-4)GlcNAc(b1-6)]Man(a1-6)]Man(b1-4)GlcNAc(b1-4)GlcNAc
In short: as §1

[31] = biological target: Neu5Ac(a2-3)Gal(b1-4)GlcNAc(b1-2)[Neu5Ac(a2-3)Gal(b1-4)GlcNAc(b1-4)]Man(a1-3)[GlcNAc(b1-4)][Neu5Ac(a2-3)Gal(b1-4)GlcNAc(b1-4)Man(a1-6)]Man(b1-4)GlcNAc(b1-4)GlcNAc
In short: as §1

[32] = biological target: Neu5Ac(a2-3)Gal(b1-4)GlcNAc(b1-2)[Neu5Ac(a2-3)Gal(b1-4)GlcNAc(b1-6)]Man(a1-6)[Neu5Ac(a2-3)Gal(b1-4)GlcNAc(b1-2)Man(a1-3)][GlcNAc(b1-4)]Man(b1-4)GlcNAc(b1-4)GlcNAc
In short: as §1

[33] = biological target: Neu5Ac(a2-3)Gal(b1-4)GlcNAc(b1-3)Gal
In short: as §1

[34] = biological target: Neu5Ac(a2-3)Gal(b1-4)GlcNAc(b1-3)Gal(b1-3)GlcNAc
In short: as §1

[35] = biological target: Neu5Ac(a2-3)Gal(b1-4)GlcNAc(b1-3)Gal(b1-4)GlcNAc
In short: as §1

[36] = biological target: Neu5Ac(a2-3)Gal(b1-4)GlcNAc(b1-3)Gal(b1-4)GlcNAc(b1-2)Man(a1-3)[Neu5Ac(a2-3)Gal(b1-4)GlcNAc(b1-3)Gal(b1-4)GlcNAc(b1-2)Man(a1-6)]Man(b1-4)GlcNAc(b1-4)GlcNAc
In short: as §1

[37] = biological target: Neu5Ac(a2-3)Gal(b1-4)GlcNAc(b1-3)Gal(b1-4)GlcNAc(b1-3)Gal(b1-4)GlcNAc
In short: as §1

[38] = biological target: Neu5Ac(a2-3)Gal(b1-4)GlcNAc(b1-3)Gal(b1-4)GlcNAc(b1-3)Gal(b1-4)GlcNAc(b1-2)Man(a1-3)[Neu5Ac(a2-3)Gal(b1-4)GlcNAc(b1-3)Gal(b1-4)GlcNAc(b1-3)Gal(b1-4)GlcNAc(b1-2)Man(a1-6)]GalNAc
In short: as §1

[39] = biological target: Neu5Ac(a2-3)Gal(b1-4)GlcNAc(b1-3)Gal(b1-4)GlcNAc(b1-3)GalNAc
In short: as §1

[40] = biological target: Neu5Ac(a2-3)Gal(b1-4)GlcNAc(b1-3)Gal(b1-4)GlcNAc(b1-3)[Neu5Ac(a2-3)Gal(b1-4)GlcNAc(b1-3)Gal(b1-4)GlcNAc(b1-6)]GalNAc
In short: as §1

[41] = biological target: Neu5Ac(a2-3)Gal(b1-4)GlcNAc(b1-3)Gal(b1-4)GlcNAc(b1-6)[Gal(b1-3)]GalNAc
In short: as §1

[42] = biological target: Neu5Ac(a2-3)Gal(b1-4)GlcNAc(b1-3)Gal(b1-4)[Fuc(a1-3)]GlcNAc
In short: as §1

[43] = biological target: Neu5Ac(a2-3)Gal(b1-4)GlcNAc(b1-3)GalNAc
In short: as §1

B1: Erv46-EDTA (Saccharomyces cerevisiae), P39727 (protein)
chain: MKFLVNVALVFMVVYISYIYAAAPEHHHHHHDYDIPTTENLYFQGAMDSVVTRPQLVVDRDRHAKLELNMDVTFPSMPCDLVNLDIMDDSGEMQLDILDAGFTMSRLNSEGRPVGDATELHVGGNGDGTAPVNNDPNYCGPCYGAKDQSQNENLAQEEKVCCQDCDAVRSAYLEAGWAFFDGKNIEQCEREGYVSKINEHLNEGCRIKGSAQINRIQGNLHFAPGKPYQNAYGHFHDTSLYDKTSNLNFNHIINHLSFGKPIQSHSKLLGNDKRHGGAVVATSPLDGRQVFPDRNTHFHQFSYFAKIVPTRYEYLDNVVIETAQFSATFHSRPLAGGRDKDHPNTLHVRGGIPGMFVFFEMSPLKVINKEQ
- glycan array binding signal (z-score) (Neu5Ac(a2-3)Gal): 0.503
- glycan array binding signal (z-score) [1]: -0.26
- glycan array binding signal (z-score) [2]: -0.165
- glycan array binding signal (z-score) [3]: -0.954
- glycan array binding signal (z-score) [4]: 0.009
- glycan array binding signal (z-score) [5]: 0.341
- glycan array binding signal (z-score) [6]: -0.694
- glycan array binding signal (z-score) [7]: -0.126
- glycan array binding signal (z-score) [8]: -0.364
- glycan array binding signal (z-score) [9]: 0.231
- glycan array binding signal (z-score) [10]: 1.06
- glycan array binding signal (z-score) [11]: 0.026
- glycan array binding signal (z-score) [12]: -0.673
- glycan array binding signal (z-score) [13]: -0.043
- glycan array binding signal (z-score) [14]: 0.343
- glycan array binding signal (z-score) [15]: -0.006
- glycan array binding signal (z-score) [16]: 0.638
- glycan array binding signal (z-score) [17]: -0.199
- glycan array binding signal (z-score) [18]: -0.483
- glycan array binding signal (z-score) [19]: 0.152
- glycan array binding signal (z-score) [20]: -0.804
- glycan array binding signal (z-score) [21]: 0.431
- glycan array binding signal (z-score) [22]: 0.079
- glycan array binding signal (z-score) [23]: 0.153
- glycan array binding signal (z-score) (Neu5Ac(a2-3)Gal(b1-4)Glc): -0.202
- glycan array binding signal (z-score) [24]: -0.604
- glycan array binding signal (z-score) [25]: -0.454
- glycan array binding signal (z-score) [26]: -0.363
- glycan array binding signal (z-score) [27]: -0.545
- glycan array binding signal (z-score) [28]: 0.11
- glycan array binding signal (z-score) [29]: -0.938
- glycan array binding signal (z-score) [30]: -0.666
- glycan array binding signal (z-score) [31]: 0.162
- glycan array binding signal (z-score) [32]: -0.335
- glycan array binding signal (z-score) [33]: -0.425
- glycan array binding signal (z-score) [34]: 0.01
- glycan array binding signal (z-score) [35]: -0.338
- glycan array binding signal (z-score) [36]: 1.84
- glycan array binding signal (z-score) [37]: -0.486
- glycan array binding signal (z-score) [38]: 1.36
- glycan array binding signal (z-score) [39]: -1.17
- glycan array binding signal (z-score) [40]: 0.016
- glycan array binding signal (z-score) [41]: -0.571
- glycan array binding signal (z-score) [42]: 0.109
- glycan array binding signal (z-score) [43]: -0.063
